Consider seven substances from article PMC5852159, “Hydrogen peroxide positively regulates brassinosteroid signaling through oxidation of the BRASSINAZOLE-RESISTANT1 transcription factor” (Nature Communications, 2018).

These are yes or no findings as the source states them, for the method shown. For some assays here: Binding seen in cells or lysates may run through a third protein. Some binding calls cover weakened binding; strength is not graded here. For some assays here: Where a sequence is shown, tags or fusion partners need not be part of it.

Test [1] concerns the target T1, PIF4-nYFP (rBiFC, pBiFCt-2in1-CC) (Arabidopsis thaliana) (UniProt Q8W2F3).
T1 sequence: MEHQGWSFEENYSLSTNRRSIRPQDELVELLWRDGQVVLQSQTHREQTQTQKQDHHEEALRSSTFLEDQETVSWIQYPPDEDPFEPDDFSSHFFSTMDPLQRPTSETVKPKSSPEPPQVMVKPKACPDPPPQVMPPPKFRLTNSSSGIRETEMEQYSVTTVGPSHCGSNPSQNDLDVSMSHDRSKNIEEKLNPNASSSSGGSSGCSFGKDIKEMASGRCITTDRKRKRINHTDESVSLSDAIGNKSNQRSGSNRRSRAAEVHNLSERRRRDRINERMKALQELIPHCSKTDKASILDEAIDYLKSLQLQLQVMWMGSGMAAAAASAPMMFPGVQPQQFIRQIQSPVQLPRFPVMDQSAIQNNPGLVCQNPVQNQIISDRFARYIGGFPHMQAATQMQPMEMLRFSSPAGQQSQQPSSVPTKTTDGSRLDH
The test can be described thus: split reporter; ratiometric BiFC (rBiFC), both partners and RFP reference on one vector (pBiFCt-2in1-CC), epidermal cells of tobacco leaves, mock or 1 mM H2O2 for 30 min; YFP/RFP ratio.

For test [2], the target named is T2, ARF6-nYFP (rBiFC, pBiFCt-2in1-CC) (Arabidopsis thaliana) (UniProt Q9ZTX8).
T2 sequence: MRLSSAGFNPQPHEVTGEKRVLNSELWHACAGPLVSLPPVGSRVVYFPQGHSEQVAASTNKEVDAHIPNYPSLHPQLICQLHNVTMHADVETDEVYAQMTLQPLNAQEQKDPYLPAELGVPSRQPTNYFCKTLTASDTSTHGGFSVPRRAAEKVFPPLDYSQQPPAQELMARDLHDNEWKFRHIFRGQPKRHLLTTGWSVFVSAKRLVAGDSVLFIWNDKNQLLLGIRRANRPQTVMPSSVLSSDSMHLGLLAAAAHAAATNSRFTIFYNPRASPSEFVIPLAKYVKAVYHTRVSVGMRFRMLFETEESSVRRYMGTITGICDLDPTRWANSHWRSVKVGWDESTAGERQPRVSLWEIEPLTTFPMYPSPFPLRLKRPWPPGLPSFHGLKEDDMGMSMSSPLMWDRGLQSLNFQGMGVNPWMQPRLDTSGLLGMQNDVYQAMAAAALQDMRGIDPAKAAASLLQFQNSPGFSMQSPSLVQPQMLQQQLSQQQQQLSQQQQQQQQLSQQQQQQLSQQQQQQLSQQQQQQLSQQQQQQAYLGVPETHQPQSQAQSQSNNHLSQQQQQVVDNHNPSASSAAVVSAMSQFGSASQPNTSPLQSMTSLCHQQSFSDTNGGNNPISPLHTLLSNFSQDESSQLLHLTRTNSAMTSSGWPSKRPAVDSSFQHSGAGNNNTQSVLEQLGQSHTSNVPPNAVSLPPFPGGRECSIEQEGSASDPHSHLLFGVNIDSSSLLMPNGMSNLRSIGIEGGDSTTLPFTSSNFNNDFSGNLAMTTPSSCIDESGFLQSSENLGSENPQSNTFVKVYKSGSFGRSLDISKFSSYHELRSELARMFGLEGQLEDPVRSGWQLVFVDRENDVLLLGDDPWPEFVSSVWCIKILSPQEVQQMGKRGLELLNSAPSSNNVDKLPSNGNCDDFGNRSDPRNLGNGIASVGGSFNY
Described as above.

Test [3] deals with T3, ARF6 (construct of the co-immunoprecipitation, Supplementary Fig. 9g) (Arabidopsis thaliana) (UniProt Q9ZTX8).
T3 sequence: T2 sequence
As to the kind of experiment: co-IP; extracts of Arabidopsis mesophyll protoplasts transformed with BZR1-Myc and/or PIF4-YFP, mock or 100 µM H2O2 for 1 h; GFP-Trap agarose beads; blots with anti-Myc and anti-YFP (ARF6: Supplementary Fig. 9g).

Test [4] deals with T4, PIF4-YFP (Arabidopsis thaliana) (UniProt Q8W2F3).
T4 sequence: T1 sequence
The test is described as above.

In test [5] the target is T5, TRXh5-nYFP (Arabidopsis thaliana) (UniProt Q39241).
T5 sequence: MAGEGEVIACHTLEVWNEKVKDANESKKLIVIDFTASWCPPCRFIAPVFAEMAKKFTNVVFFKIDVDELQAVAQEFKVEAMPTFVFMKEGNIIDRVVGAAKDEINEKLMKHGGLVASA
As to the kind of experiment: split reporter; BiFC in tobacco leaves: BZR1-cYFP or BES1-cYFP co-expressed with TRX-h proteins fused to nYFP.

Test [6] has as its target T6, TRXh5-Myc (p35S:TRXh5-Myc) (Arabidopsis thaliana) (UniProt Q39241).
T6 sequence: T5 sequence
As to the kind of experiment: co-IP; extracts of transgenic Arabidopsis expressing pBZR1:BZR1-YFP only or with p35S:TRXh5-Myc; Myc-trap beads; blots with anti-Myc or anti-YFP.

Test [7] concerns the target T7, GST-PIF4 (glutathione-S-transferase-PHYTOCHROME … FACTOR4) (Arabidopsis thaliana) (UniProt Q8W2F3).
T7 sequence: T1 sequence
As to the kind of experiment: pull-down; glutathione beads with 1 µg GST fusion incubated with 1 µg MBP or MBP fusion; 20 mM Tris-HCl pH 7.5, 100 mM NaCl, 1 mM EDTA, with or without 1 mM H2O2, 4 °C, 1 h; washed with 300 mM NaCl, 0.1% Nonidet P-40; blots with anti-MBP and anti-GST; both purified.

The target of test [8] is T8, GST-ARF6 (GST-AUXIN RESPONSE FACTOR6) (Arabidopsis thaliana) (UniProt Q9ZTX8).
T8 sequence: T2 sequence
The description is as above.

For “BZR1-cYFP (rBiFC, pBiFCt-2in1-CC) (from UniProt Q8S307 1-336)”, the binding entry in test [1] and in test [2] was “binds” in each case.

As to BZR1-Myc (from UniProt Q8S307 1-336), the binding entry in test [3] and in test [4] was “binds” each time.

For “BZR1-cYFP (BiFC, pX-cYFP) (from UniProt Q8S307 1-336)”, the binding result in test [5] is “binds”.

“BZR1-YFP (pBZR1:BZR1-YFP) (from UniProt Q8S307 1-336)”: the binding entry in test [6] is “binds”.

As to “MBP-BZR1^C63S (from UniProt Q8S307 1-336)”, the binding entry in test [7] is on record as “binds”.

Take “BZR1^5S-cYFP (rBiFC, pBiFCt-2in1-CC) (from UniProt Q8S307 1-336)”: the binding result in test [1] and in test [2] was “binds weakly” each time.

Turning to “MBP-BZR1 (maltose-binding protein-BRASSINAZOLE-…1 fusion) (from UniProt Q8S307 1-336)”, the binding entry in test [7] and in test [8] was “binds” each time.
